Results published in patent US20200277375A1.
No constants are given. Whether binding was seen depends on the method and setting. Some binding calls cover weakened binding; strength is not graded here.

Experiments:
[1] = target: cynomolgus monkey CD47-Fc (cynomolgus monkey); test: direct titration ELISA, FIG. 3
[2] = target: cynomolgus monkey CD47-Fc (cynomolgus monkey); test: direct specificity ELISA, IgG 1 µg/ml, FIG. 5F
[3] = target: cynomolgus monkey CD47 on transfected CHO-K1 cells (cynomolgus monkey); test: flow cytometry, cyno CD47-transfected CHO-K1, FIG. 6A
[4] = target: cynomolgus monkey CD47-Fc (cynomolgus monkey); test: direct specificity ELISA, IgG 1 µg/ml, FIG. 5G
[5] = target: cynomolgus monkey CD47-Fc (cynomolgus monkey); test: direct specificity ELISA, IgG 1 µg/ml, FIG. 5E

binding [1]	binding [2]	binding [3]	binding [4]	binding [5]	Binder
binds	binds	binds	–	–	D-H3 in human IgG1null format (antibody, V domains shown) VH: EVQLVQSGAEVKKPGESLKISCKGSGYSFTNYYIFWVRQMPGKGLEWMGDINPVNGDTNYSPSFQGQVTISADKSISTAYLQWSSLKASDTAMYYCARGGYTPDYWGQGTLVTVSS VL: DIVMTQSPLSLPVTPGEPASISCRSSQSLLHSNGYNYLHWYLQKPGQSPQLLIYKGSNRFSGVPDRFSGSGSGTDFTLKISRVEAEDVGVYYCSQNLHVPRTFGQGTKVEIK
binds	–	binds	binds	–	G-B6 in human IgG1null format (antibody, V domains shown) VH: EVQLVQSGAEVKKPGESLKISCKGSGYSFTNYYIFWVRQMPGKGLEWIGDINPVNGDTNFSPSFQGQVTISADKSISTAYLQWSSLKASDTAMYYCARGGYTMDKWGQGTLVTVSS VL: DIVMTQSPLSLPVTPGEPASISCRSSQSLVHSNGYTYLHWYLQKPGQSPQLLIYKGSYRASGVPDRFSGSGSGTDFTLKISRVEAEDVGVYYCSQNTQTPRTFGQGTKVEIK
binds	–	binds	–	binds	F-E7 in human IgG1null format (antibody, V domains shown) VH: EVQLVQSGAEVKKPGESLKISCKGSGYSFTNYYIFWVRQMPGKGLEWMGIINPVNGDTNYNPSFQGQVTISADKSISTAYLQWSSLKASDTAMYYCARGGYTMGKWGQGTLVTVSS VL: DIVMTQSPLSLPVTPGEPASISCRSSQSLVHSNGNTYLDWYLQKPGQSPQLLIYKGSYRFSGVPDRFSGSGSGTDFTLKISRVEAEDVGVYYCSQATHTPRTFGQGTKVEIK
